Laboratory results reported in the supplement of paper PMC10849652.
The other results are listed elsewhere or left out.

The chains behind the UniProt entries cited, without tags or fusion partners. Where a name states a change or a piece, a line headed by the entry shows the natural chain unless it says otherwise.
UniProt Q96CS3: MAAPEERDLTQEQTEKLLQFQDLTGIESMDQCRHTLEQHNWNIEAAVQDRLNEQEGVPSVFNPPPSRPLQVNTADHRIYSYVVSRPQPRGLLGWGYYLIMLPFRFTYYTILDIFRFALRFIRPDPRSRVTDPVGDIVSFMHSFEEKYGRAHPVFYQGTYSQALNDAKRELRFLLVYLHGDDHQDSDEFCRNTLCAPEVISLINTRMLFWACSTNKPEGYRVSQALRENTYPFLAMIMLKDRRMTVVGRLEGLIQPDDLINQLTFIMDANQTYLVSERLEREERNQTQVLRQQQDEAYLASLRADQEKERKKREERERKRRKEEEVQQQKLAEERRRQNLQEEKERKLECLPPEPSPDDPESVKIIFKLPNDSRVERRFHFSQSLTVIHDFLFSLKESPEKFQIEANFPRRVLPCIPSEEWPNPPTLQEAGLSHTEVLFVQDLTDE
UniProt Q96KR6: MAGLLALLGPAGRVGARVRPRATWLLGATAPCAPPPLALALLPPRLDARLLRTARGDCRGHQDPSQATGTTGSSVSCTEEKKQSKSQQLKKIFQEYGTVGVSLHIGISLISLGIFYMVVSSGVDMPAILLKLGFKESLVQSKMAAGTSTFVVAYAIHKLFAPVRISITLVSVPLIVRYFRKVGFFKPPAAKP
UniProt Q96PL5: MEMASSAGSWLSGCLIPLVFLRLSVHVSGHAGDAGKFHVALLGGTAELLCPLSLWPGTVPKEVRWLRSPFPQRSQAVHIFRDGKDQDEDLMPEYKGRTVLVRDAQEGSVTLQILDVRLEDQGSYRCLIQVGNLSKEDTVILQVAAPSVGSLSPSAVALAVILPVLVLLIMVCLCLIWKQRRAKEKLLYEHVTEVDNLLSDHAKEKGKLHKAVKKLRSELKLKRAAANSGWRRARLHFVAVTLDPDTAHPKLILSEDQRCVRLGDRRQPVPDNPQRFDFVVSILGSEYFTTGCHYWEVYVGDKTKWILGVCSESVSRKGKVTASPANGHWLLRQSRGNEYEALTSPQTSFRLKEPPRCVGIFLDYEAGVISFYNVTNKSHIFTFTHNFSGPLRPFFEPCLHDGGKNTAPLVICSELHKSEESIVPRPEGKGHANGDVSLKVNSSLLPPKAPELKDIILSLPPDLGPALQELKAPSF
UniProt Q9NV70: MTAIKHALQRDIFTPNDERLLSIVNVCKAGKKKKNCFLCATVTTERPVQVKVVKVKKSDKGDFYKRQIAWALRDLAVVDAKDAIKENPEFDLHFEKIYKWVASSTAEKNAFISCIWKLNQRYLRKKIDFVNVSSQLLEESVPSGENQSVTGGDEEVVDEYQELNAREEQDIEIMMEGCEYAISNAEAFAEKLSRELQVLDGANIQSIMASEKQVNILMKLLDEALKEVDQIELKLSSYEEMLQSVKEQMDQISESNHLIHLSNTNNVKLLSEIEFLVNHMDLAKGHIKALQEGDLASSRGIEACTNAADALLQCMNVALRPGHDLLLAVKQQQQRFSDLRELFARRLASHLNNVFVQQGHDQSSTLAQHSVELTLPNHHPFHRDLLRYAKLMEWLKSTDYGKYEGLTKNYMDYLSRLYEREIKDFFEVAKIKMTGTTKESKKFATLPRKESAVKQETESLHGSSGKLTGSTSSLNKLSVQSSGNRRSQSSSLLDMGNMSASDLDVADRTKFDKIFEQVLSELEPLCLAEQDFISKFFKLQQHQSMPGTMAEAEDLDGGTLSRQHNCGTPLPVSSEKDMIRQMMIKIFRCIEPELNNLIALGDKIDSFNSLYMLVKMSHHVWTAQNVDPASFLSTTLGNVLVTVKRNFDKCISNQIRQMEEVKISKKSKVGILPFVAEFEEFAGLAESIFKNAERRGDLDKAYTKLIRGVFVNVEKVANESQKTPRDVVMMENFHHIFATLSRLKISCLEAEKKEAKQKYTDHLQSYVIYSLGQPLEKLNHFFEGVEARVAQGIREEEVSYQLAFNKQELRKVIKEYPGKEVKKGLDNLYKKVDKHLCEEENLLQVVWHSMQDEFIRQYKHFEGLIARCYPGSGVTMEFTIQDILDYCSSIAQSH
UniProt Q9H501: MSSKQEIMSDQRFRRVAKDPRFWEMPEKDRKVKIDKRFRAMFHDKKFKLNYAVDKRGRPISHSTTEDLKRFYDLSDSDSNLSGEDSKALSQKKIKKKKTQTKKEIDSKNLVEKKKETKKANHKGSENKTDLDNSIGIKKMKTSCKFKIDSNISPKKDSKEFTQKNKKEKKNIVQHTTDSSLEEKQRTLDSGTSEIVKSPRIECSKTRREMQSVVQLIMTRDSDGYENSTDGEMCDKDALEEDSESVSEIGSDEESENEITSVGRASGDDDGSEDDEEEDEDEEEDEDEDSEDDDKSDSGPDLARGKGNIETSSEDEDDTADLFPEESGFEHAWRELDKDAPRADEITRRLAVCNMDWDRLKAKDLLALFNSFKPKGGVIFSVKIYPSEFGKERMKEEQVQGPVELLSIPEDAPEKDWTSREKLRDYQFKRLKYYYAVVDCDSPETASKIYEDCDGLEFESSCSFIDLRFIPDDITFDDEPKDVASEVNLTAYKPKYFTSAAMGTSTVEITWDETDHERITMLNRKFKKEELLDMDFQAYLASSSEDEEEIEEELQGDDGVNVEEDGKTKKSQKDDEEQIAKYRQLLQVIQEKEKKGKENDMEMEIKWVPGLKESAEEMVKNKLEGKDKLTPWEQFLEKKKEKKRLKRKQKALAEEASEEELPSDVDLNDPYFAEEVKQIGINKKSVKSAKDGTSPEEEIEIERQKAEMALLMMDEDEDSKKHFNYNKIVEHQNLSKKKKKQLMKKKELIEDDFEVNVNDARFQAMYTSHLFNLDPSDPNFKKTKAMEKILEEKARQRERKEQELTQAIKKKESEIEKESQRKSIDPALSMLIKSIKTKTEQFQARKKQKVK
UniProt Q8TAG9: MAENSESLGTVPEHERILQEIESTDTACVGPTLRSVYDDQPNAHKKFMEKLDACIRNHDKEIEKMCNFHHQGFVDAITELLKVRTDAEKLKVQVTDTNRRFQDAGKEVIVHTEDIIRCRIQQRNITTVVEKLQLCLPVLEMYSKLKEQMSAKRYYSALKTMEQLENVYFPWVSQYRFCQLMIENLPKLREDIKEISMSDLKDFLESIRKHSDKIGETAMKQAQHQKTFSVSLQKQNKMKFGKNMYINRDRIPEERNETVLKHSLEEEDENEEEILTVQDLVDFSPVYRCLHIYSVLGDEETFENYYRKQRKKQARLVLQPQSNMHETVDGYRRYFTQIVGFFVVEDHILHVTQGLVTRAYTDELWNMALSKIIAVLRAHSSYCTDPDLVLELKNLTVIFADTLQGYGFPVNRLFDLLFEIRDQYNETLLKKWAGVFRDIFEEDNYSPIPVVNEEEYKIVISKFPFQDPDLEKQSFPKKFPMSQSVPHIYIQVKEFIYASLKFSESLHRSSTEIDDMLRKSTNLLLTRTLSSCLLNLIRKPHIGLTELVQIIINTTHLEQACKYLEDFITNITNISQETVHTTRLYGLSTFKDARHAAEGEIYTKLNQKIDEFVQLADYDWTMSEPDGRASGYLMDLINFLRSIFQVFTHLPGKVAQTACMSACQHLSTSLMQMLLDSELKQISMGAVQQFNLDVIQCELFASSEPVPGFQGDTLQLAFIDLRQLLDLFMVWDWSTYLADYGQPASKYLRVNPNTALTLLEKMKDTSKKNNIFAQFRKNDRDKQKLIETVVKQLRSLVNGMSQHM
UniProt Q9NVQ4: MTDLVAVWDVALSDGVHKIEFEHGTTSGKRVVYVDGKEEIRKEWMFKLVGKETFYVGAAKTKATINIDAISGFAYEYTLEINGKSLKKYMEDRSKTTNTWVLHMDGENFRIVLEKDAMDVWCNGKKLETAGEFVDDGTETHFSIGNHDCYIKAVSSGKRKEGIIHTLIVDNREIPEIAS
UniProt Q9BPY3: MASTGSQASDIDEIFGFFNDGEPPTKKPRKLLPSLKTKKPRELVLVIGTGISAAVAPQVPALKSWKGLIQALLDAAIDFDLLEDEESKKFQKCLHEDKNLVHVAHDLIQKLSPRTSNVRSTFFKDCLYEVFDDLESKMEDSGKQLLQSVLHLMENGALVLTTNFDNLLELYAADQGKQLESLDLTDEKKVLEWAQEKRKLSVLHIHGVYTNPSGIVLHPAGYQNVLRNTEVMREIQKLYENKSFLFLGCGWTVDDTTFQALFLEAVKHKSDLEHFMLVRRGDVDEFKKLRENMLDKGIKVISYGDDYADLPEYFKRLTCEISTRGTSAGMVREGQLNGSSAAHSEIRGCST
UniProt Q14674: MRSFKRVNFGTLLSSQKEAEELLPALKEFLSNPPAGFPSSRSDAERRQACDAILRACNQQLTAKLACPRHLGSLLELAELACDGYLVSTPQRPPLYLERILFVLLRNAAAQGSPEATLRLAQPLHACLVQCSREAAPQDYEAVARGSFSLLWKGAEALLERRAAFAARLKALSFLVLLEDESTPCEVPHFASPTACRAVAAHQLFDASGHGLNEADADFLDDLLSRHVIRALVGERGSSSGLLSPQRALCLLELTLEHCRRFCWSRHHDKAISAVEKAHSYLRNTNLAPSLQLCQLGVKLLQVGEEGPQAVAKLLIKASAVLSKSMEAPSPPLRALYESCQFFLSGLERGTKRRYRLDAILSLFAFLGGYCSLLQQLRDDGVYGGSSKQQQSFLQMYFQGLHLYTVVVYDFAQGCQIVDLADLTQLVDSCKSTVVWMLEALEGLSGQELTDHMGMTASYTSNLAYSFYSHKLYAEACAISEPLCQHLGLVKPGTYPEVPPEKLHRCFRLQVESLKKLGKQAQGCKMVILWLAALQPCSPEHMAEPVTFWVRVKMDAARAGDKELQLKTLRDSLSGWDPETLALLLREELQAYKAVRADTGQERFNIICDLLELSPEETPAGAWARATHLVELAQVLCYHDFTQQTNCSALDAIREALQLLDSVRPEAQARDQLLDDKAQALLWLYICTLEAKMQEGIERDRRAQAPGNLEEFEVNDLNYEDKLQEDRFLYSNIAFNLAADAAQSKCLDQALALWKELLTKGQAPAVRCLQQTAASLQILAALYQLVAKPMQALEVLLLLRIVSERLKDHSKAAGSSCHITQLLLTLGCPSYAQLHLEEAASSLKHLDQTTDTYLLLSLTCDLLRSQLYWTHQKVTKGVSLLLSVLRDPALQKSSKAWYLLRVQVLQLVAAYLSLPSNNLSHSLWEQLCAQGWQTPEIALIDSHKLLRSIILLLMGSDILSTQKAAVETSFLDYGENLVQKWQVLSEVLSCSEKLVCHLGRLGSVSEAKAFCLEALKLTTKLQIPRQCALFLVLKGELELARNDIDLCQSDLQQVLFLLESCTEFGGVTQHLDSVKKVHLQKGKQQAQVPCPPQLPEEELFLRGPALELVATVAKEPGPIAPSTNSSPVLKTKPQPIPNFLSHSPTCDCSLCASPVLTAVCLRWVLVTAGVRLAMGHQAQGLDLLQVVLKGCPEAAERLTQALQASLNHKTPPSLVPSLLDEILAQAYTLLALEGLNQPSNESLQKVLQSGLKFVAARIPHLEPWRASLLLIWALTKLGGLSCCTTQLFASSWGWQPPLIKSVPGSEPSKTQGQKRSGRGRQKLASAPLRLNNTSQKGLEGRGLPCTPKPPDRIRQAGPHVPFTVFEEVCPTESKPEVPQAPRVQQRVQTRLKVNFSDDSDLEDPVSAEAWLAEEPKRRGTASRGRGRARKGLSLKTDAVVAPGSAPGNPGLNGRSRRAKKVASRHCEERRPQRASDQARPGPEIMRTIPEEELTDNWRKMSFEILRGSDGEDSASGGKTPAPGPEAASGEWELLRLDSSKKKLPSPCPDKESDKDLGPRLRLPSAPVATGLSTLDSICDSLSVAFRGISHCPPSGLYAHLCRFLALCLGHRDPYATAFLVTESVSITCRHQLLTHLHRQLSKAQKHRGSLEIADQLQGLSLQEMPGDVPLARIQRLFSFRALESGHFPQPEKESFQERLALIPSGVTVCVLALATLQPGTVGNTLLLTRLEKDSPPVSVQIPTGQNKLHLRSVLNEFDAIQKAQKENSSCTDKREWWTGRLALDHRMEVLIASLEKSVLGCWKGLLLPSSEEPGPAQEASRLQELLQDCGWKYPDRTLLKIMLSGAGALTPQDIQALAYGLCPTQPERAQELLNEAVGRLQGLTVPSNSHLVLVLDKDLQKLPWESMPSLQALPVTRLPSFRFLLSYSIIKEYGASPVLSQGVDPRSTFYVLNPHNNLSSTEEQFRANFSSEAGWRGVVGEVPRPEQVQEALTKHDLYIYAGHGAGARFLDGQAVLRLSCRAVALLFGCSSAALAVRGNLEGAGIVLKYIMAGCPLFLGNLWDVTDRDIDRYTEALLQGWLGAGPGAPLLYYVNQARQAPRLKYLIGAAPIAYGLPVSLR
UniProt Q5RKV6, whole entry, looked up: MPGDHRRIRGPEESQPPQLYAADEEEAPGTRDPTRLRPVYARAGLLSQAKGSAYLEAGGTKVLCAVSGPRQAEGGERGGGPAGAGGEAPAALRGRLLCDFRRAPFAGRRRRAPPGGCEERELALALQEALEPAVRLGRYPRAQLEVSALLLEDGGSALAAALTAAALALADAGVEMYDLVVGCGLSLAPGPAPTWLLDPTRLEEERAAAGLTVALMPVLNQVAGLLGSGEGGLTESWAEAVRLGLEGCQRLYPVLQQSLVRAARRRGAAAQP

Key:
Experiment in all cases: log2 fold change, soluble protein after heating vs DMSO (PISA); higher = thermal stabilisation; K562 lysate, 10 uM; active = over 0.2 and 3.5 SD of the protein, either way, in both replicates (recomputed)
lapatinib = compound: CS(=O)(=O)CCNCc1ccc(-c2ccc3ncnc(Nc4ccc(OCc5cccc(F)c5)c(Cl)c4)c3c2)o1 [lapatinib]
Summary of the method: (§1)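 To prepare the extract, K562 pellets were dounce-homogenised in PBS pH 7.4 with 1 mM MgCl2, giving crude material at 1 mg/mL protein. This was treated with 10 μM compound for 30 min, then heated in aliquots for 3 min over 48°C-58°C before pooling and addition of NP-40 to 0.5% at 4°C. Centrifugation at 21,000xg for 90 min left soluble protein in the supernatant, which TMTpro 16plex LC-MS/MS quantified with equalised channel sums. Results are log-two fold changes in thermal stability compared with solvent controls, from duplicates.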

pictilisib = compound: CS(=O)(=O)N1CCN(Cc2cc3nc(-c4cccc5[nH]ncc45)nc(N4CCOCC4)c3s2)CC1 [pictilisib]
Summary of the method: as §1

crizotinib = compound: C[C@@H](Oc1cc(-c2cnn(C3CCNCC3)c2)cnc1N)c1c(Cl)ccc(F)c1Cl [crizotinib]
Summary of the method: as §1

[1] = compound: C[C@H](C1=CC=C(C=C1)C(=O)NC2=C3C=CNC3=NC=C2)N
Summary of the method: as §1

duvelisib = compound: C[C@H](Nc1ncnc2nc[nH]c12)c1cc2cccc(Cl)c2c(=O)n1-c1ccccc1 [duvelisib]
Summary of the method: as §1

gandotinib = compound: Cc1cc(Nc2cc(CN3CCOCC3)c3nc(C)c(Cc4ccc(Cl)cc4F)n3n2)n[nH]1 [gandotinib]
Summary of the method: as §1

tozasertib = compound: Cc1cc(Nc2cc(N3CCN(C)CC3)nc(Sc3ccc(NC(=O)C4CC4)cc3)n2)n[nH]1 [tozasertib]
Summary of the method: as §1

doramapimod = compound: Cc1ccc(-n2nc(C(C)(C)C)cc2NC(=O)Nc2ccc(OCCN3CCOCC3)c3ccccc23)cc1 [doramapimod]
Summary of the method: as §1

bafetinib = compound: Cc1ccc(NC(=O)c2ccc(CN3CC[C@H](N(C)C)C3)c(C(F)(F)F)c2)cc1Nc1nccc(-c2cncnc2)n1 [bafetinib]
Summary of the method: as §1

[2] = compound: Cc1cccc(CC(=O)N2CCc3c2ccc(-c2cn(C)c4ncnc(N)c24)c3F)n1
Summary of the method: as §1

nilotinib = compound: Cc1cn(-c2cc(NC(=O)c3ccc(C)c(Nc4nccc(-c5cccnc5)n4)c3)cc(C(F)(F)F)c2)cn1 [nilotinib]
Summary of the method: as §1

[3] = compound: Cc1nc(Nc2n[nH]c3c2CN(C(=O)N[C@H](CN(C)C)c2ccccc2)C3(C)C)c2sccc2n1
Summary of the method: as §1

dasatinib = compound: Cc1nc(Nc2ncc(C(=O)Nc3c(C)cccc3Cl)s2)cc(N2CCN(CCO)CC2)n1 [dasatinib]
Summary of the method: as §1

[4] = compound: Cc1ncc(-c2ccnc(Nc3ccc(S(C)(=O)=O)cc3)n2)n1C(C)C
Summary of the method: as §1

[5] = compound: Cn1cc(-c2ccc3c(c2)CCN3C(=O)Cc2cccc(C(F)(F)F)c2)c2c(N)ncnc21
Summary of the method: as §1

quisinostat = compound: Cn1cc(CNCC2CCN(c3ncc(C(=O)NO)cn3)CC2)c2ccccc21 [quisinostat]
Summary of the method: as §1

tipifarnib = compound: Cn1cncc1[C@@](N)(c1ccc(Cl)cc1)c1ccc2c(c1)c(-c1cccc(Cl)c1)cc(=O)n2C [tipifarnib]
Summary of the method: as §1

[6] = compound: NC(=O)Nc1cc(-c2cccc(F)c2)sc1C(=O)N[C@H]1CCCNC1
Summary of the method: as §1

[7] = compound: NC(=O)c1cnc(N[C@@H]2CCCC[C@@H]2N)nc1Nc1cccc(-n2nccn2)c1
Summary of the method: as §1

[8] = compound: NC1(c2ccc(-c3nc4ccn5c(=O)[nH]nc5c4cc3-c3ccccc3)cc2)CCC1
Summary of the method: as §1

Target | log2 fold change (lapatinib) | log2 fold change (pictilisib) | log2 fold change (crizotinib) | log2 fold change [1] | log2 fold change (duvelisib) | log2 fold change (gandotinib) | log2 fold change (tozasertib) | log2 fold change (doramapimod) | log2 fold change (bafetinib) | log2 fold change [2] | log2 fold change (nilotinib) | log2 fold change [3] | log2 fold change (dasatinib) | log2 fold change [4] | log2 fold change [5] | log2 fold change (quisinostat) | log2 fold change (tipifarnib) | log2 fold change [6] | log2 fold change [7] | log2 fold change [8]
FAF2 (UniProt Q96CS3) | inactive: 0.006 | inactive: -0.015 | inactive: -0.062 | inactive: -0.044 | inactive: -0.03 | inactive: -0.051 | inactive: 0.05 | inactive: 0.023 | inactive: -0.08 | inactive: -0.003 | inactive: 0.016 | inactive: -0.068 | inactive: -0.016 | inactive: 0.01 | inactive: 0.037 | inactive: -0.051 | inactive: -0.056 | inactive: 0.027 | inactive: -0.023 | inactive: 0.016
FAM210B (UniProt Q96KR6) | inactive: 0.065 | inactive: 0.001 | inactive: -0.068 | inactive: -0.136 | inactive: 0.01 | inactive: 0.09 | inactive: 0.086 | inactive: -0.085 | inactive: 0.004 | inactive: 0.048 | inactive: 0.133 | inactive: -0.079 | inactive: 0.037 | inactive: -0.025 | inactive: -0.06 | inactive: -0.098 | inactive: -0.019 | inactive: 0.049 | inactive: -0.032 | inactive: -0.018
ERO1B (UniProt Q86YB8) | inactive: -0.041 | inactive: -0.077 | inactive: 0.007 | inactive: -0.098 | inactive: 0.061 | inactive: 0.053 | inactive: -0.034 | inactive: -0.016 | inactive: -0.027 | inactive: -0.121 | inactive: -0.2 | inactive: -0.058 | inactive: 0.026 | inactive: 0.209 | inactive: 0.013 | inactive: -0.068 | inactive: 0.072 | inactive: 0.017 | inactive: 0.061 | inactive: 0.003
ERMAP (UniProt Q96PL5) | inactive: -0.053 | inactive: -0.012 | inactive: -0.011 | inactive: -0.104 | inactive: -0.018 | inactive: 0.102 | inactive: 0.003 | inactive: -0.041 | inactive: -0.095 | inactive: 0.121 | inactive: -0.07 | inactive: -0.009 | inactive: -0.04 | inactive: 0.035 | inactive: 0.024 | inactive: 0.01 | inactive: 0.075 | inactive: 0.041 | inactive: -0.065 | inactive: -0.037
EXOC1 (UniProt Q9NV70) | inactive: -0.013 | inactive: 0.029 | inactive: -0.041 | inactive: 0.04 | inactive: 0.016 | inactive: -0.186 | inactive: -0.004 | inactive: 0.023 | inactive: -0.04 | inactive: 0.024 | inactive: -0.005 | inactive: 0.013 | inactive: -0.067 | inactive: 0.013 | inactive: 0.097 | inactive: 0.024 | inactive: 0.005 | inactive: 0.024 | inactive: 0.012 | inactive: -0.032
ESF1 (UniProt Q9H501) | inactive: -0.106 | inactive: 0.026 | inactive: -0.017 | inactive: -0.041 | inactive: 0.05 | inactive: 0.061 | inactive: 0.062 | inactive: 0.019 | inactive: -0.088 | inactive: 0.045 | inactive: 0.002 | inactive: 0.004 | inactive: 0.022 | inactive: 0.021 | inactive: 0.002 | inactive: 0.024 | inactive: -0.015 | inactive: -0.003 | inactive: 0.058 | inactive: 0.037
FADS1, A0A0A0MR51 | inactive: 0.203 | inactive: -0.087 | inactive: -0.003 | inactive: -0.024 | inactive: -0.029 | active: 0.559 | inactive: 0.041 | inactive: 0.018 | inactive: 0.027 | inactive: 0.083 | inactive: 0.065 | inactive: -0.078 | inactive: 0.04 | inactive: 0.02 | inactive: 0.079 | inactive: 0.004 | inactive: 0.069 | inactive: 0.008 | inactive: -0.114 | inactive: 0.022
FAM207A (UniProt Q9NSI2) | inactive: 0.005 | inactive: 0.018 | inactive: -0.017 | inactive: 0.03 | inactive: -0.021 | inactive: 0.022 | inactive: 0.066 | inactive: 0.009 | inactive: -0.013 | inactive: -0.008 | inactive: -0.004 | inactive: 0.012 | inactive: 0.007 | inactive: -0.029 | inactive: 0.004 | inactive: -0.005 | inactive: 0.008 | inactive: 0.016 | inactive: -0.006 | inactive: -0.002
EXOC6 (UniProt Q8TAG9) | inactive: -0.017 | inactive: -0.04 | inactive: -0.121 | inactive: -0.013 | inactive: 0 | inactive: -0.166 | inactive: 0.029 | inactive: 0.004 | inactive: -0.059 | inactive: 0.033 | inactive: -0.002 | inactive: 0.01 | inactive: -0.063 | inactive: 0.022 | inactive: 0.064 | inactive: -0.023 | inactive: -0.044 | inactive: 0.068 | inactive: 0.024 | inactive: -0.064
EZH2 isoform 2 (UniProt Q15910) | inactive: -0.033 | inactive: -0.004 | inactive: -0.044 | inactive: 0.113 | inactive: 0.013 | inactive: -0.25 | inactive: -0.074 | inactive: 0.016 | inactive: 0.015 | inactive: -0.071 | inactive: 0.002 | inactive: 0.163 | inactive: 0 | inactive: -0.078 | inactive: 0.026 | inactive: -0.13 | inactive: -0.027 | inactive: 0.034 | inactive: 0.01 | inactive: -0.04
EXOC4 (UniProt Q96A65) | inactive: -0.038 | inactive: 0.018 | inactive: -0.044 | inactive: 0.011 | inactive: 0.024 | inactive: -0.165 | inactive: -0.028 | inactive: -0.023 | inactive: -0.056 | inactive: 0.015 | inactive: 0.015 | inactive: -0.012 | inactive: -0.083 | inactive: 0.015 | inactive: 0.072 | inactive: -0.009 | inactive: -0.036 | inactive: 0.053 | inactive: 0.013 | inactive: -0.068
FAIM isoform 2 (UniProt Q9NVQ4) | inactive: -0.035 | inactive: -0.072 | inactive: -0.106 | inactive: 0.055 | inactive: -0.056 | inactive: -0.041 | inactive: 0.129 | inactive: -0.058 | inactive: -0.077 | inactive: 0.037 | inactive: 0.063 | inactive: 0.086 | inactive: -0.464 | inactive: 0.041 | inactive: -0.058 | inactive: 0.004 | inactive: -0.148 | inactive: 0.04 | inactive: -0.093 | inactive: 0.035
FAM118B (UniProt Q9BPY3) | inactive: 0.022 | inactive: -0.013 | inactive: -0.093 | inactive: -0.022 | inactive: 0.045 | inactive: -0.044 | inactive: -0.008 | inactive: 0.048 | inactive: 0.008 | inactive: 0.037 | inactive: -0.018 | inactive: 0.002 | inactive: -0.039 | inactive: -0.009 | inactive: -0.008 | inactive: -0.06 | inactive: -0.015 | inactive: 0.021 | inactive: 0.032 | inactive: -0.007
FAM234A (UniProt Q9H0X4) | inactive: -0.108 | inactive: -0.023 | inactive: 0.023 | inactive: -0.063 | inactive: 0.007 | inactive: 0.039 | inactive: -0.021 | inactive: -0.041 | inactive: -0.02 | inactive: 0.1 | inactive: -0.001 | inactive: -0.065 | inactive: -0.07 | inactive: -0.049 | inactive: 0.036 | inactive: -0.009 | inactive: 0.064 | inactive: -0.029 | inactive: 0.033 | inactive: -0.007
ESPL1 (UniProt Q14674) | inactive: 0.053 | inactive: 0.07 | inactive: -0.015 | inactive: 0.027 | inactive: -0.011 | inactive: 0.026 | inactive: 0.024 | inactive: -0.044 | inactive: -0.077 | inactive: 0.057 | inactive: -0.013 | inactive: 0.006 | inactive: 0.044 | inactive: 0.054 | inactive: 0.02 | inactive: 0.066 | inactive: -0.024 | inactive: 0.021 | inactive: -0.014 | inactive: -0.055
EXOSC6 (UniProt Q5RKV6) | inactive: -0.023 | inactive: 0.026 | inactive: -0.012 | inactive: -0.014 | inactive: 0.031 | inactive: 0.067 | inactive: 0.017 | inactive: 0.025 | inactive: 0.009 | inactive: -0.003 | inactive: 0.023 | inactive: -0.014 | inactive: 0 | inactive: 0 | inactive: -0.01 | inactive: 0.014 | inactive: 0.023 | inactive: 0.002 | inactive: -0.028 | inactive: -0.008

Individual results from the entries so far.
Entry for FAF2 (UniProt Q96CS3) under log2 fold change (crizotinib): inactive: -0.062
Entry for FAM234A (UniProt Q9H0X4) under log2 fold change (tozasertib): inactive: -0.021
